Experimental findings from paper PMC7020397 (Toxins, 2020) are described below.

The chains behind the UniProt entries cited, without tags or fusion partners. Residues count along the entry.
UniProt P36544, residues 23-502: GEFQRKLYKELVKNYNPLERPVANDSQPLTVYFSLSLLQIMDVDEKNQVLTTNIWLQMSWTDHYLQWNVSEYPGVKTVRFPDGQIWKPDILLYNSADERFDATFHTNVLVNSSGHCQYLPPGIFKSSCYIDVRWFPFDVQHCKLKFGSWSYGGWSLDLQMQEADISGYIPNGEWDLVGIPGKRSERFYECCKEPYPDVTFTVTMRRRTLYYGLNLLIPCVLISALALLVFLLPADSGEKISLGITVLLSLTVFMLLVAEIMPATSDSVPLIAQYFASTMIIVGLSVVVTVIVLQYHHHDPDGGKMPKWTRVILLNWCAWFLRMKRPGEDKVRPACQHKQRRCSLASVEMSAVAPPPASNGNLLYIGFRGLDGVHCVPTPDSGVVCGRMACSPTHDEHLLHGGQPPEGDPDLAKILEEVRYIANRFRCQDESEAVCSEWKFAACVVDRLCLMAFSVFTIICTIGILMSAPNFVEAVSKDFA
UniProt P60615, residues 22-95: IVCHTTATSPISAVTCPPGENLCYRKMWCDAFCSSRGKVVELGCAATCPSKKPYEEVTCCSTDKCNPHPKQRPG

The target in this experiment is human neuronal α7 nAChR (human) (UniProt P36544). Put plainly: competition with α-bungarotoxin.

These are yes or no findings as the source states them, for the method shown. Some entries that bind do so weakly or less than the wild type.

On to “α-bungarotoxin (from UniProt P60615 22-95) (ligand)”, for which the binding entry was “binds”.
